Source: PubChem BioAssay AID1053133 (Broad Institute, 2014).

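Vaccinia-infected cells with a two-color viral stage reporter; Venus fluorescence read on a plate reader; the cell line is not named here; timing not stated here.
The test concentration is not given here.
Percent change in Venus reporter signal; lower (more negative) values mean stronger inhibition of that viral stage.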

Values are in %.
How 0% and 100% were set is not given here.
Common to all entries: measured here: Venus reporter, other viral stage.
This is a side read-out of the assay, for part of the compounds, not drawn at random.

structure	activity change (Venus) (%)
O=C(c1cnccn1)N1CC(=O)N2[C@H](CO)[C@@H](c3ccc(C#CC4CCCCC4)cc3)[C@@H]2C1	-54.08
C[C@H](CO)N1C[C@H](C)[C@H](CN(C)S(=O)(=O)c2ccc([N+](=O)[O-])cc2)OCc2ccccc2-c2c(n(C)c3ccccc23)C1=O	-27.32
COc1ccc(C#Cc2ccc([C@H]3[C@H]4CN(C(=O)NC(C)C)CC(=O)N4[C@H]3CO)cc2)cc1	-25
CCCC#Cc1ccc2c(c1)O[C@@H](CN(C)Cc1ccncc1)[C@@H](C)CN([C@@H](C)CO)S2(=O)=O	-25.25
C[C@@H]1CCCCO[C@H](CN(C)Cc2ccc(C(F)(F)F)cc2)[C@@H](C)CN([C@@H](C)CO)C(=O)c2cc(NS(=O)(=O)c3cn(C)cn3)ccc2O1	-41.33
C[C@@H]1CCCCO[C@H](CN(C)C(=O)CCC(F)(F)F)[C@H](C)CN([C@@H](C)CO)C(=O)c2cc(NC(=O)Nc3ccc4c(c3)OCO4)ccc2O1	-41.21
C[C@H]1CN([C@@H](C)CO)C(=O)c2cc(C#CC3CCCCC3)cnc2O[C@H]1CN(C)S(=O)(=O)c1ccccc1	-40.31
Cc1noc(C)c1NC(=O)Nc1ccc2c(c1)C(=O)N([C@@H](C)CO)C[C@H](C)[C@H](CN(C)Cc1ccc(Cl)c(Cl)c1)OCCCC[C@@H](C)O2	-36.5
C[C@H](CO)N1C[C@H](C)[C@@H](CN(C)Cc2ccc(Oc3ccccc3)cc2)Oc2ccc(NC(=O)c3ccncc3)cc2CC1=O	-19.72
O=C(NC1CCCC1)N1CCCCN2[C@H](C1)[C@H](c1ccc(/C=C/c3ccccc3)cc1)[C@@H]2CO	-48.55
CCCC#Cc1ccc2c(c1)O[C@@H](CN(C)S(=O)(=O)c1cccc(OC)c1)[C@@H](C)CN([C@@H](C)CO)S2(=O)=O	-37.15
C[C@H](CO)N1C[C@H](C)[C@H](CN(C)S(=O)(=O)c2ccc(F)cc2)Oc2ccc(NC(=O)Nc3ccccc3)cc2CC1=O	-22.01
C[C@@H]1CN([C@H](C)CO)S(=O)(=O)c2ccc(/C=C/c3ccccc3)cc2O[C@H]1CN(C)C(=O)C1CC1	-55.97
CC(C)COC(=O)N(C)C[C@@H]1OCc2ccccc2-c2c(n(C)c3ccccc23)C(=O)N([C@@H](C)CO)C[C@@H]1C	-37.09
COc1ccc(CN(C)C[C@H]2OCCCC[C@H](C)Oc3ccc(NC(=O)Nc4ccc(C(F)(F)F)cc4)cc3C(=O)N([C@H](C)CO)C[C@H]2C)cc1	-40.67
Cc1cccc(S(=O)(=O)N2C[C@@H]3N[C@H](C2)C3c2ccc(-c3cccc(C(=O)N(C)C)c3)cc2)c1 (some centres unmarked)	-59.19
CN(C)C(=O)c1cccc(-c2ccc3c(c2)[C@@H]2[C@@H](CCN2C(=O)C2CCC2)[C@@H](CO)N3)c1	-35.21
COc1ccc(CN(C)C[C@@H]2OCCCC[C@@H](C)Oc3ccc(NS(=O)(=O)c4c(C)noc4C)cc3C(=O)N([C@@H](C)CO)C[C@@H]2C)cc1	-29.7
CC(C)c1ccc(NC(=O)C[C@H]2CC[C@H]3[C@@H](COc4ccc(NC(=O)c5ccno5)cc4C(=O)N3C)O2)cc1	-33.9
C[C@H]1CCCCO[C@H](CN(C)C(=O)Nc2ccccc2)[C@@H](C)CN([C@@H](C)CO)C(=O)c2cc(NS(=O)(=O)c3ccccc3)ccc2O1	-33.37
CC(C)CC#Cc1ccc([C@@H]2[C@@H](CO)N3C(=O)CN(S(=O)(=O)c4cccc(F)c4)C[C@@H]23)cc1	-36.35
C[C@@H]1CN([C@@H](C)CO)C(=O)c2cccc(NC(=O)c3nc4ccccc4s3)c2O[C@@H]1CN(C)Cc1ccccc1	-29.4
O=C(NCc1ccccc1)[C@]1(Cc2ccccc2)N=C(c2ccc(OCCCO)cc2)O[C@@H]1c1ccccc1	-31.45
COc1ccc(-c2ccc3c(c2)O[C@H](CN(C)C(=O)c2ccccc2F)[C@@H](C)CN([C@@H](C)CO)S3(=O)=O)cc1	-25.38
CC(C)(C)[S@@](=O)N1Cc2cc(C(=O)NCc3ccccn3)nc(-c3cccc(-c4ccccc4F)c3)c2[C@H]1CCO	-10.96
C[C@@H]1CCCCO[C@@H](CN(C)C(=O)C2CCCCC2)[C@@H](C)CN([C@@H](C)CO)C(=O)c2cc(NS(=O)(=O)c3ccc(F)cc3)ccc2O1	-32.94
C[C@H]1CN([C@@H](C)CO)C(=O)Cc2cc(NC(=O)Nc3ccc4c(c3)OCO4)ccc2O[C@H]1CN(C)S(=O)(=O)c1ccc(Cl)cc1	-43.39
COc1ccc(C#Cc2ccc([C@@H]3[C@H]4CN(C(=O)Nc5ccccc5)CCCCN4[C@H]3CO)cc2)cc1	-58.79
O=C(CN1CCOCC1)N1CCCCN2[C@H](C1)[C@H](c1ccc(/C=C/c3ccccc3)cc1)[C@@H]2CO	-65.18
CC(C)CC#Cc1ccc2c(c1)O[C@H](CN(C)C(=O)CN(C)C)[C@@H](C)CN([C@@H](C)CO)S2(=O)=O	-48.12
C[C@H]1CN([C@@H](C)CO)S(=O)(=O)c2ccc(C#Cc3cccc(F)c3)cc2O[C@H]1CN(C)CC1CC1	-40.55
C[C@H](CO)N1C[C@H](C)[C@H](CN(C)C(=O)Nc2ccccc2)Oc2ncc(/C=C/c3ccccc3)cc2C1=O	-21.34
COc1ccccc1C#Cc1ccc([C@H]2[C@@H](CO)N3CCCCN(C(=O)C4CCC4)C[C@@H]23)cc1	-33.67
C[C@@H]1CN([C@@H](C)CO)C(=O)c2c(c3ccccc3n2C)-c2ccccc2CO[C@@H]1CN(C)Cc1cccc(C(F)(F)F)c1	-49.01
C[C@@H]1CN([C@@H](C)CO)C(=O)c2cc(NS(=O)(=O)c3cccs3)ccc2O[C@@H](C)CCCCO[C@@H]1CN(C)C(=O)Nc1ccc2c(c1)OCO2	-45.54
C[C@@H]1CN([C@@H](C)CO)C(=O)c2cc(C#Cc3ccccc3F)cnc2O[C@@H]1CN(C)C(=O)c1ccc2c(c1)OCO2	-23.52
C[C@H](CO)N1C[C@H](C)[C@H](CN(C)C(=O)Nc2ccc(C(F)(F)F)cc2)Oc2ncc(-c3ccc(C#N)cc3)cc2C1=O	-41.63
Cc1ccccc1-c1ccc2c(c1)O[C@@H](CN(C)C(=O)Nc1ccc(C(F)(F)F)cc1)[C@H](C)CN([C@H](C)CO)S2(=O)=O	-60.89
C[C@@H]1CN([C@@H](C)CO)C(=O)c2cc(NC(=O)c3ccccc3)ccc2O[C@@H](C)CCCCO[C@H]1CN(C)CC1CCCCC1	-43.28
COC(=O)[C@H]1[C@H](CO)[C@H]2Cn3c(ccc(/C=C/c4ccccc4)c3=O)[C@@H]1N2CC1CCCC1	-36.44
C[C@@H]1CCCCO[C@H](CN(C)Cc2ccc3c(c2)OCO3)[C@@H](C)CN([C@@H](C)CO)C(=O)c2cc(NS(=O)(=O)c3ccc(F)cc3)ccc2O1	-52.2
COc1ccc(-c2ccc3c(c2)[C@@H]2[C@@H](CCN2C(=O)NC2CCCCC2)[C@H](CO)N3C)cc1	-49.41
C[C@H](CO)N1C[C@H](C)[C@H](CN(C)C(=O)Nc2cccc3ccccc23)Oc2ncc(C#Cc3ccccc3)cc2C1=O	-33.77
O=C(C[C@H]1CC[C@H]2[C@@H](COC[C@H](O)CN2Cc2cccc(-c3ccncc3)c2)O1)N1CCN(c2ccccc2)CC1	-29.27
COc1cccc(-c2ccc3c(c2)O[C@H](CN(C)C(=O)C2CCCCC2)[C@H](C)CN([C@@H](C)CO)S3(=O)=O)c1	-53.67
COc1ccc(NC(=O)N2CCCCN3[C@@H](CO)[C@@H](c4ccc(C5=CCCC5)cc4)[C@@H]3C2)cc1	-56.73
C[C@@H]1CN([C@H](C)CO)C(=O)c2cc(NC(=O)CCC(F)(F)F)ccc2O[C@@H](C)CCCCO[C@@H]1CN(C)S(=O)(=O)c1cccs1	-38.1
C[C@H]1CCCCO[C@@H](CN(C)C(=O)C2CCCCC2)[C@@H](C)CN([C@@H](C)CO)C(=O)c2cc(NS(=O)(=O)c3cccs3)ccc2O1	-27.79
O=C(C[C@H]1CC[C@@H]2[C@H](COC[C@H](O)CN2S(=O)(=O)c2ccc(Cl)cc2)O1)N[C@@H]1CCN(Cc2ccccc2)C1	-32.19
Cc1ccccc1-c1ccc2c(c1)O[C@H](CN(C)C(=O)Nc1ccc(C(F)(F)F)cc1)[C@@H](C)CN([C@H](C)CO)S2(=O)=O	-49.44
C[C@@H]1CN([C@@H](C)CO)C(=O)Cc2cc(NS(=O)(=O)c3ccc(Cl)cc3)ccc2O[C@@H]1CN(C)Cc1ccc(C(F)(F)F)cc1	-38.13
C[C@@H]1CN([C@@H](C)CO)C(=O)c2c(c3ccccc3n2C)-c2ccccc2CO[C@@H]1CN(C)C(=O)Nc1ccc(F)cc1	-48.27

3 of the entries, repeated:

| structure | activity change (Venus) (%) |
|---|---|
| `O=C(c1cnccn1)N1CC(=O)N2[C@H](CO)[C@@H](c3ccc(C#CC4CCCCC4)cc3)[C@@H]2C1` | -54.08 |
| `C[C@H]1CN([C@@H](C)CO)S(=O)(=O)c2ccc(C#Cc3cccc(F)c3)cc2O[C@H]1CN(C)CC1CC1` | -40.55 |
| `CC(C)COC(=O)N(C)C[C@@H]1OCc2ccccc2-c2c(n(C)c3ccccc23)C(=O)N([C@@H](C)CO)C[C@@H]1C` | -37.09 |